Source: PubChem BioAssay AID504444 (National Center for Advancing Translational Sciences (NCATS), 2011)
In all, about 360,000 compounds went through this assay and about 7,500 (2.1%) were called active. This list was built around the results that the source calls inconclusive (neither active nor inactive); the mix of calls is not that of the screen. Calls come from the whole dose curve; as a rule, active = well fitted inhibition curve with a large enough effect; inconclusive = small, poorly fitted or top-dose-only effect, or effect the other way; inactive = flat fitted curve, though single readings scatter. Potencies of inconclusive entries are doubtful fits and often do not repeat.

Experiment: Nrf2 qHTS screen for inhibitors; note: nearly all actives have a fitted effect of over 60% in size
Settings: A549 ARE-Fluc reporter, luciferase luminescence, 18-24 h; series mostly up to 46 µM
In short: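 Concentration-response testing used A549 ARE_Fluc cells at 5000 cells/well. Following an 18-24 h compound incubation, viability was read by fluorescence (Ex 405/Em 525) and luciferase output by luminescence.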
Potency is the fitted concentration of half-maximal effect.

Compound | Potency
CC(C)=CCc1cc([C@@H]2COc3c(ccc4c3C=CC(C)(C)O4)C2)c(O)cc1O | inconclusive: 29.1 µM [falling, single point]
Cc1cccc2cc3c(N)c(C(=O)N4CCOCC4)sc3nc12 | inactive
COc1ccc(-c2ccc3c(c2)S(=O)(=O)c2cccc(C(=O)NC4CCCCC4)c2C3=O)cc1OC | inconclusive: 4.61 µM [falling, single point]
CCCCCCCn1ccc(O)c(CC(=O)OC)c1=O | inactive
O=C1NC(=O)C2(COC3(CCCC3)OC2)S1 | inconclusive: 18.4 µM [falling, single point]
O=C(O)c1ccc(C=NN2CCCCCC2)cc1 | inconclusive: 8.2 µM [activator, partial curve]
COC(=O)c1[nH]c2cccc(OC)c2c1NC(=O)CN1CC2(C)CC1CC(C)(C)C2 (stereo unspecified) | inconclusive: 2.31 µM [falling, single point]
O=C(Nc1ccc(S(=O)(=O)NC2CCCCC2)cc1)c1ccco1 | inconclusive: 20.6 µM [falling, partial curve, poor fit]
O=C(CN1CCC(n2nnc3ccccc32)CC1)NCc1cccs1 | inactive
COc1cc(/C=N/NC(=O)c2ccc(CN(C)S(=O)(=O)c3ccc(C)cc3)cc2)ccc1O | inconclusive: 20.6 µM [falling, partial curve, poor fit]
N=C1C(c2nc(-c3ccc(Br)cc3)cs2)=C(O)CN1NC(=O)c1ccc([N+](=O)[O-])cc1 | inconclusive: 29.1 µM [activator, single point]
COc1ccc(C(=O)NCCCN2CCOCC2)cc1Br | inconclusive: 18.4 µM [activator, single point]
Cc1cc(C)cc(NC(=O)c2cc(C)nc3ccccc23)c1 | inconclusive: 4.11 µM [activator, partial curve, poor fit]
O=C(O)C(Cc1ccccc1)N1C(=O)/C(=C/C=C/c2ccco2)SC1=S (stereo unspecified) | inactive
CC(C)S(=O)(=O)c1oc(-c2cccs2)nc1S(=O)(=O)c1ccc(F)cc1 | active: 18.4 µM
Cc1cccc(NS(=O)(=O)c2cc(C(=O)OCC(=O)Nc3cc(C)on3)ccc2C)c1 | inconclusive: 14.6 µM [activator, partial curve, poor fit]
CCOC(=O)c1c(NC(=O)CSc2nc3ccccc3s2)sc(C(C)=O)c1C | inconclusive: 29.1 µM [falling, single point]
O=c1c2cnn(-c3ccc(F)cc3)c2ncn1Cc1cccnc1 | inconclusive: 32.6 µM [falling, single point]
O=C(NCC(=O)N1CCN(Cc2ccccc2)CC1)c1cccs1 | inconclusive: 7.31 µM [activator, partial curve]
COc1cccc(CNC(=O)Cn2c(=O)c3cccn3c3ccccc32)c1 | inconclusive: 3.26 µM [falling, single point]
Cc1ccc(C)c(N2CCN(C(=O)CC3Sc4ccccc4NC3=O)CC2)c1 (stereo unspecified) | inconclusive: 29.1 µM [falling, single point]

An excerpt from above in order of molecular weight, high to low.
Compound | Potency
N=C1C(c2nc(-c3ccc(Br)cc3)cs2)=C(O)CN1NC(=O)c1ccc([N+](=O)[O-])cc1 | inconclusive: 29.1 µM [activator, single point]
Cc1cc(C)cc(NC(=O)c2cc(C)nc3ccccc23)c1 | inconclusive: 4.11 µM [activator, partial curve, poor fit]
CCCCCCCn1ccc(O)c(CC(=O)OC)c1=O | inactive

Next records:

Compound | Potency
CCN(CC)C(=O)c1cc2sc3ccccc3c2s1 | inconclusive: 23.1 µM [activator, single point]
COc1ccc(CC(=O)Nc2ccc(N3CCCCC3)cc2)cc1 | inconclusive: 16.4 µM [activator, partial curve, poor fit]
Cc1ccc(CNc2nc3ccccc3n2C)cc1 | inconclusive: 0.411 µM [activator, full curve]
CCc1ccc(N2C(=O)Nc3ccccc3C2(O)C(=O)N2CCN(c3ccccn3)CC2)cc1 (stereo unspecified) | inconclusive: 18.4 µM [activator, single point]
COc1cccc(NC(=O)c2cnc[nH]2)c1 | inconclusive: 8.2 µM [activator, partial curve]
CC1(C)Cc2cccc(C(=O)Nc3ccncc3)c2O1 | inconclusive: 20.6 µM [falling, single point]
CC(C)c1ccc(NC(=O)Nc2csc3c2CCCC3)cc1 | inconclusive: 29.1 µM [falling, single point]
Cc1ccc2c(=O)cc(C(=O)Nc3c(C(=O)Nc4cccc(Cl)c4)oc4ccccc34)oc2c1 | inactive
CC(=O)Nc1ccc(S(=O)(=O)Nc2cccc(-c3csc(C)n3)c2)cc1 | inconclusive: 23.1 µM [falling, partial curve, poor fit]
CN(C)c1cccc(C(=O)Nc2nc3ccccc3[nH]2)c1 | inconclusive: 0.206 µM [activator, full curve]
Cc1csc(NC(=O)c2cccc(C)c2C)n1 | inconclusive: 3.66 µM [activator, full curve]
CCOc1ccc(CNC(=O)c2ccc3c(c2)nnn3C2CCCC2)cc1 | inconclusive: 14.6 µM [activator, single point]
CCOC(=O)CNC(=O)CSc1ncccc1-c1nc2ccccc2[nH]1 | inconclusive: 2.06 µM [activator, partial curve, poor fit]
CCc1ccccc1NC(=O)c1cc2nc(-c3ccc(OC)c(OC)c3)cc(C(F)(F)F)n2n1 | inactive
COc1cc(NC(=O)CN2C(=O)NC(C)(c3ccc4ccccc4c3)C2=O)c(C)cc1[N+](=O)[O-] (stereo unspecified) | inconclusive: 6.51 µM [activator, single point]
COc1ccc(NC(=O)c2cc(S(=O)(=O)N3CCOCC3)cs2)cc1 | inconclusive: 14.6 µM [falling, partial curve, poor fit]
CC(C)c1csc(CN2CCCC(CNC(=O)c3cccc4ccccc34)C2)n1 (stereo unspecified) | active: 16.4 µM
COc1ccccc1N1CCN(C(=O)Nc2cn(CC(C)C)c(=O)c3ccccc23)CC1 | inconclusive: 9.2 µM [activator, partial curve]
NC(=O)c1ccccc1N/C=C/C(=O)c1cccs1 | inconclusive: 9.2 µM [activator, partial curve]
CC(C)C(=O)Nc1cccc(C(=O)Nc2nnc(CC(C)(C)C)s2)c1 | inconclusive: 32.6 µM [falling, partial curve, poor fit]
